Assay [1] addresses T1, LMO2, mouse (mouse (endogenous in ES cell-derived Flk-1+ cells and PUER cells)) (UniProt P25801).
T1 sequence: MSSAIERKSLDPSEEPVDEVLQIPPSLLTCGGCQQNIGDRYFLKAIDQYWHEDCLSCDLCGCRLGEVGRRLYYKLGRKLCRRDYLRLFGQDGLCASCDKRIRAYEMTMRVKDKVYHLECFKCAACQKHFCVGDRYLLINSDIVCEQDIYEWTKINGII
Nature of the assay: proximity ligation.

Assay [2] has as its target T1, LMO2, mouse (mouse (endogenous in ES cell-derived Flk-1+ cells and PUER cells)). As to the kind of experiment: co-IP.

No constants are given. Whether binding was seen depends on the method and setting. Binding seen in cells or lysates may run through a third protein. Some entries that bind do so weakly or less than the wild type.

B1: PHF6, mouse (protein, UniProt Q9D4J7 1-364)
chain: MSSSIEQKKGSTRQRKCGFCKSNRDKECGQLLISENQKVAAHHKCMLFSSALVSSHSDNESLGGFSIEDVQKEIKRGTKLMCSLCHCPGATIGCDVKTCHRTYHYHCALHDKAQIREKPSQGIYMVYCRKHKKTAHNSEADLEESFNEHELEPSSPKTKKKSRKGRPRKTNLKGLPEDSRSTSSHGTDEMESSSYRDRSPHRSSPNDTRPKCGFCHVGEEENEARGKLHIFNAKKAAAHYKCMLFSSGTVQLTTTSRAEFGDFDIKTVLQEIKRGKRMKCTLCSQPGATIGCEIKACVKTYHYHCGVQDKAKYIENMSRGIYKLYCKNHSGNDERDEEDEERESKSRGRVAIDQQLTQQQLNGN
Regarding B1, the binding result in assay [1] and in assay [2] was “binds” throughout.

Source of the values: paper doi:10.1101/2020.08.18.255471.
